This passage reports binding results from paper PMC5155689, “Pro-invasive Effect of Proto-oncogene PBF Is Modulated by an Interaction with Cortactin” (The Journal of Clinical Endocrinology and Metabolism, 2016).

Chains of the proteins cited; added tags and fusions are not shown.
UniProt Q14247: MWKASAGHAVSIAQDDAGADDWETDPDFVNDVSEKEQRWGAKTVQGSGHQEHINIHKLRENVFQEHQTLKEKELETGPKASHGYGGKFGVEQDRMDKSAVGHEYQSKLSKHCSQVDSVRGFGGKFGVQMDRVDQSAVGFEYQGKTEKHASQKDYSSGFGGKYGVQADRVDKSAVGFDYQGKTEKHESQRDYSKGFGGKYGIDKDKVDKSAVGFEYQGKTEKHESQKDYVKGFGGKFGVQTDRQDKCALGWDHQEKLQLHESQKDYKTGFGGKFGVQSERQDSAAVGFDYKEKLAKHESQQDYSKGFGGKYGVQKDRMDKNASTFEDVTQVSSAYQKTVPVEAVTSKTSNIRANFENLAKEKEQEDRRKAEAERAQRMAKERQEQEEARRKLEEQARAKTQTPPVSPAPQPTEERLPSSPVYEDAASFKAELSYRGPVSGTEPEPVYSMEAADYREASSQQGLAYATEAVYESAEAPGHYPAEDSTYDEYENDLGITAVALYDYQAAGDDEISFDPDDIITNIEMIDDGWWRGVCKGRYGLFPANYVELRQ

The assay deals with T1, PTTG1-binding factor (PBF/PTTG1IP) with a hemagglutinin (HA) tag, wild type (UniProt P53801).
T1 sequence: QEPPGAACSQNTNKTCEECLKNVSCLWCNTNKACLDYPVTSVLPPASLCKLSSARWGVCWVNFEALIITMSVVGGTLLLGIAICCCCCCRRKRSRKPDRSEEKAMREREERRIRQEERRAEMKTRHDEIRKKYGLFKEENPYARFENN
Briefly: affinity purification with mass spectrometry; PBF-interacting proteins isolated by co-immunoprecipitation with anti-mHA antibody from TPC-1 and K1 cells, SDS-PAGE, trypsin, HPLC and tandem mass spectrometry; n = 4 runs.

These are yes or no findings as the source states them, for the method shown. Binding seen in cells or lysates may run through a third protein. A yes stands for co-enrichment or nearness to the bait. Other partners may have been found. Where a sequence is shown, tags or fusion partners need not be part of it.

In the case of “endogenous cortactin (CTTN) (from UniProt Q14247 1-550)”, the binding entry is “binds”.
